Results as given in patent US20030096382A1.
These are yes or no findings as the source states them, for the method shown. In cells and extracts the contact can be indirect. Some binding calls cover weakened binding; strength is not graded here.

By UniProt entry, the sequences of proteins in these tests, tags left out.
UniProt P05343: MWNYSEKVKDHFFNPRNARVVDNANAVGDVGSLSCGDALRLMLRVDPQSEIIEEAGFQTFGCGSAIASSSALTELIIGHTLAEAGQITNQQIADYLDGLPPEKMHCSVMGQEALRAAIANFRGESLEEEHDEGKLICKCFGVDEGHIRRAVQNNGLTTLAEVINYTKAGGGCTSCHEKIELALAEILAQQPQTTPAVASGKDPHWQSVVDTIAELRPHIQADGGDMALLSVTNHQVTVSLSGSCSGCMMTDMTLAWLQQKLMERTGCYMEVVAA
UniProt P05344: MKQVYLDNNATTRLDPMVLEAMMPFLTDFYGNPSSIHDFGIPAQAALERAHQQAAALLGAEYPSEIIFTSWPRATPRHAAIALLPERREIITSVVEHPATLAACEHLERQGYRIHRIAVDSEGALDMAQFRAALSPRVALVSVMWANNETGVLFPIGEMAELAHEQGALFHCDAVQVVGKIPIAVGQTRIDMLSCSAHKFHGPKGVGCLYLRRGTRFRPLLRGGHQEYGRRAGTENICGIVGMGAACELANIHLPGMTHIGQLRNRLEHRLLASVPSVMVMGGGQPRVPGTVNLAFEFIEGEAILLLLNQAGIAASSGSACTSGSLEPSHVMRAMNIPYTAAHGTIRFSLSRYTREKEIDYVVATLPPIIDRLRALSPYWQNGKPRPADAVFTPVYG

Molecular target: Klebsiella pneumoniae nifU gene product (Klebsiella pneumoniae) (UniProt P05343)
Assay: co-purification; gel filtration on HiPrep Sephacryl S-200 HR, NIFU/S complex eluted at about 140 kDa; the two also co-eluted on RESOURCE Q anion exchange

## Klebsiella pneumoniae nifS gene product (from UniProt P05344 1-397) (enzyme)
  binding: binds
